Source: paper PMC3556126, “The site-specific integration reaction of Listeria phage A118 integrase, a serine recombinase”
A weaker result is weaker than the reference pair of the same experiment. Where a protein sequence is shown, tags need not be part of it.

Target: T1, A118 integrase C-terminal domain (HisInt158-452) (Listeria monocytogenes phage A118) (UniProt Q8Y4U8)
T1 sequence (looked up): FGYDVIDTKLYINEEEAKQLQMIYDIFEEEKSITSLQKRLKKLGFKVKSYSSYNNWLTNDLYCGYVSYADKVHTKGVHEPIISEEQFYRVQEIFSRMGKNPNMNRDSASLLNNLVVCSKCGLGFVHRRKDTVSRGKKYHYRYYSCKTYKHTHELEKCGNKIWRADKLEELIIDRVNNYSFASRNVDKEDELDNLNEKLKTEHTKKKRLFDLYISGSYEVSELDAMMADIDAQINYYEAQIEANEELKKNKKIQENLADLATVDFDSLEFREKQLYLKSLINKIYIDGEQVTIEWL
Assay: EMSA
Conditions: 810 nM, weak monomer binding; 20 mM HEPES pH 7.5, 100 mM NaCl, 0.1 mg/ml BSA, 5 mM spermidine, 5 mM DTT, 5% glycerol, 50 ug/ml salmon sperm DNA, about 0.1 pmol probe in 10 ul, 30 C 30 min; recombinant protein; residues 158-452; protein details: N-terminal His (pET15b); label: 32P

Q: Does “TTTAGTTCCTCGTTTTCTCTCGTTGGACTCCTCCTCGCTCGTCCCAGCCC (double strand) [attP Po- half-site]” bind?
A: binds more weakly
